{"source": "PubChem BioAssay AID1224830 (NIAID, 2016)", "aim": "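Host factors that control LPS-induced TNF expression in human macrophages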 (primary screen)", "system": "human THP-1 monocytic leukaemia cells, TNF dual-luciferase reporter clone, PMA-differentiated to macrophage-like cells", "knock-down reagent": "siRNA pool against human genes, 50 nM", "duration": "LPS for 4 h, given about 3 days after siRNA transfection", "conditions": "bacterial LPS (TLR4 ligand), 10 ng/ml", "read-out": "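Ratio of firefly to renilla light, scaled to the plate median and expressed as a robust z-score per replicate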", "direction": "TNF reporter robust z-score: higher = stronger TNF reporter response to LPS", "active means": "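Each well counts as active if its z-score is over 2.8 or under -1.5; controls are left without a call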", "note": "Here is a random part of about 18,000 reagents. In the full data, about 2,900 (16%) were called active. 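Calls are made per well; low scores hint the gene aids the LPS response, high scores that it dampens it.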 Repeated entries: four replicate wells of each siRNA pool."}
{"Target gene": "MMADHC", "TNF reporter robust z-score": -0.89, "call": "inactive"}
{"Target gene": "MMADHC", "TNF reporter robust z-score": -0.9, "call": "inactive"}
{"Target gene": "MMADHC", "TNF reporter robust z-score": -1.01, "call": "inactive"}
{"Target gene": "MMADHC", "TNF reporter robust z-score": -1.33, "call": "inactive"}
{"Target gene": "ADAMTSL1", "TNF reporter robust z-score": 0.19, "call": "inactive"}
{"Target gene": "ADAMTSL1", "TNF reporter robust z-score": 3.71, "call": "active"}
{"Target gene": "ADAMTSL1", "TNF reporter robust z-score": 0.93, "call": "inactive"}
{"Target gene": "ADAMTSL1", "TNF reporter robust z-score": -0.05, "call": "inactive"}
{"Target gene": "FAM117A", "TNF reporter robust z-score": 1.13, "call": "inactive"}
{"Target gene": "FAM117A", "TNF reporter robust z-score": -0.53, "call": "inactive"}
{"Target gene": "FAM117A", "TNF reporter robust z-score": -0.5, "call": "inactive"}
{"Target gene": "FAM117A", "TNF reporter robust z-score": -1.05, "call": "inactive"}
{"Target gene": "CXorf66", "TNF reporter robust z-score": -0.98, "call": "inactive"}
{"Target gene": "CXorf66", "TNF reporter robust z-score": -0.57, "call": "inactive"}
{"Target gene": "CXorf66", "TNF reporter robust z-score": -0.44, "call": "inactive"}
{"Target gene": "CXorf66", "TNF reporter robust z-score": 0.27, "call": "inactive"}
{"Target gene": "RNF26", "TNF reporter robust z-score": 0.39, "call": "inactive"}
{"Target gene": "RNF26", "TNF reporter robust z-score": -0.56, "call": "inactive"}
{"Target gene": "RNF26", "TNF reporter robust z-score": -0.23, "call": "inactive"}
{"Target gene": "RNF26", "TNF reporter robust z-score": -0.73, "call": "inactive"}
{"Target gene": "BDH2", "TNF reporter robust z-score": 1.91, "call": "inactive"}
{"Target gene": "BDH2", "TNF reporter robust z-score": 3.29, "call": "active"}
{"Target gene": "BDH2", "TNF reporter robust z-score": 2.12, "call": "inactive"}
{"Target gene": "BDH2", "TNF reporter robust z-score": 2.84, "call": "active"}
{"Target gene": "ERICH5", "TNF reporter robust z-score": -0.27, "call": "inactive"}
{"Target gene": "ERICH5", "TNF reporter robust z-score": 0.07, "call": "inactive"}
{"Target gene": "ERICH5", "TNF reporter robust z-score": 1.37, "call": "inactive"}
{"Target gene": "ERICH5", "TNF reporter robust z-score": 0.9, "call": "inactive"}
{"Target gene": "DBT", "TNF reporter robust z-score": -1.32, "call": "inactive"}
{"Target gene": "DBT", "TNF reporter robust z-score": -1.2, "call": "inactive"}
{"Target gene": "DBT", "TNF reporter robust z-score": -1.78, "call": "active"}
{"Target gene": "DBT", "TNF reporter robust z-score": -0.15, "call": "inactive"}
{"Target gene": "TPD52L3", "TNF reporter robust z-score": 0.34, "call": "inactive"}
{"Target gene": "TPD52L3", "TNF reporter robust z-score": 0.01, "call": "inactive"}
{"Target gene": "TPD52L3", "TNF reporter robust z-score": -0.11, "call": "inactive"}
{"Target gene": "TPD52L3", "TNF reporter robust z-score": 1.09, "call": "inactive"}
{"Target gene": "OR5M9", "TNF reporter robust z-score": -1.79, "call": "active"}
{"Target gene": "OR5M9", "TNF reporter robust z-score": -1.29, "call": "inactive"}
{"Target gene": "OR5M9", "TNF reporter robust z-score": -1.66, "call": "active"}
{"Target gene": "OR5M9", "TNF reporter robust z-score": -1.77, "call": "active"}
{"Target gene": "CHST8", "TNF reporter robust z-score": 0.32, "call": "inactive"}
{"Target gene": "CHST8", "TNF reporter robust z-score": 0.66, "call": "inactive"}
{"Target gene": "CHST8", "TNF reporter robust z-score": -0.16, "call": "inactive"}
{"Target gene": "CHST8", "TNF reporter robust z-score": 0.21, "call": "inactive"}
{"Target gene": "CYP1A2", "TNF reporter robust z-score": 1.01, "call": "inactive"}
{"Target gene": "CYP1A2", "TNF reporter robust z-score": 0, "call": "inactive"}
{"Target gene": "CYP1A2", "TNF reporter robust z-score": -0.02, "call": "inactive"}
{"Target gene": "CYP1A2", "TNF reporter robust z-score": 0.11, "call": "inactive"}

Records above marked active (7):
{"Target gene": "ADAMTSL1", "TNF reporter robust z-score": 3.71, "call": "active"}
{"Target gene": "BDH2", "TNF reporter robust z-score": 3.29, "call": "active"}
{"Target gene": "BDH2", "TNF reporter robust z-score": 2.84, "call": "active"}
{"Target gene": "DBT", "TNF reporter robust z-score": -1.78, "call": "active"}
{"Target gene": "OR5M9", "TNF reporter robust z-score": -1.79, "call": "active"}
{"Target gene": "OR5M9", "TNF reporter robust z-score": -1.66, "call": "active"}
{"Target gene": "OR5M9", "TNF reporter robust z-score": -1.77, "call": "active"}
